T1: reticulon 3 (RTN3) (mouse (endogenous in hippocampus of 3xTg-AD mice)) (UniProt Q9ES97)
T1 sequence: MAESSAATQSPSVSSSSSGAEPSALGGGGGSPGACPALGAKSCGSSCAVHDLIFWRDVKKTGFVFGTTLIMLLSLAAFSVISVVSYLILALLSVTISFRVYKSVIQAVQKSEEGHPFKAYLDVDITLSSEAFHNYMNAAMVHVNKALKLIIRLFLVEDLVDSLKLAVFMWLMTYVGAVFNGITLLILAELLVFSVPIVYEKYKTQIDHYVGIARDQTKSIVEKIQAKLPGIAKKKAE

Sequences of proteins named here, by UniProt entry; tags and fusion partners are left off. A change or cut given only in a name is not applied to a line headed by its entry. A line that says so, or that is headed by a name, gives the form on record, which may keep a tag or linker.
dynamin 1 like (DNM1L) (Q8K1M6-6, form named): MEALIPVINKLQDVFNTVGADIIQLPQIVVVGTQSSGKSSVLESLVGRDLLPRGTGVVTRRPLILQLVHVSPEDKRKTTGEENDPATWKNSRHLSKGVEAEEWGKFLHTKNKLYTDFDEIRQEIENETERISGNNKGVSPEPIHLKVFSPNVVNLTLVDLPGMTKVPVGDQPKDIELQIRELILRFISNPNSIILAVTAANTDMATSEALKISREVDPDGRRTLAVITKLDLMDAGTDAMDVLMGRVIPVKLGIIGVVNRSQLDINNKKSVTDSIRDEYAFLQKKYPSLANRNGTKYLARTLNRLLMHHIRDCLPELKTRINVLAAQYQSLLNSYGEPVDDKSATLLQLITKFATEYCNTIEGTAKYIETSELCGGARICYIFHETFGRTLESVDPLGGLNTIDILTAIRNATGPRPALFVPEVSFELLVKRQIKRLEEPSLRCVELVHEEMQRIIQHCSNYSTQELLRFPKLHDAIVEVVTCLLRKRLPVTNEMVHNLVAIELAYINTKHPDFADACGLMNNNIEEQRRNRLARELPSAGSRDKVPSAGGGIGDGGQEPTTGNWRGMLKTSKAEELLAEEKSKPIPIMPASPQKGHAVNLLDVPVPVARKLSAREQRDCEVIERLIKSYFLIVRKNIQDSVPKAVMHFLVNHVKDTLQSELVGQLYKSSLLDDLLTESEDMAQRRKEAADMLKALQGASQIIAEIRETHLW
UniProt Q6PD03: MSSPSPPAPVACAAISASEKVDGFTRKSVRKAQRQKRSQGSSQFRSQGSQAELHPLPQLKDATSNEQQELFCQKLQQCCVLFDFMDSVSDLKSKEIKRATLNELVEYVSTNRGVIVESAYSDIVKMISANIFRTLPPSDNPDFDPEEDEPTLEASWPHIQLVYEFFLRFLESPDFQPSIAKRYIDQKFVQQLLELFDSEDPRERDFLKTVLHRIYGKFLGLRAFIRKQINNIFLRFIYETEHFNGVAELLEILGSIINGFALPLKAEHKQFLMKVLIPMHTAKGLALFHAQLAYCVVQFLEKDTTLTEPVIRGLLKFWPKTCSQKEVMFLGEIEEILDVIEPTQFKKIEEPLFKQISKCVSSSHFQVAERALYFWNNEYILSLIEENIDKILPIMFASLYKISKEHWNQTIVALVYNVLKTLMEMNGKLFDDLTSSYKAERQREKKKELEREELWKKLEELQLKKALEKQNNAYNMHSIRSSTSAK
UniProt Q61151: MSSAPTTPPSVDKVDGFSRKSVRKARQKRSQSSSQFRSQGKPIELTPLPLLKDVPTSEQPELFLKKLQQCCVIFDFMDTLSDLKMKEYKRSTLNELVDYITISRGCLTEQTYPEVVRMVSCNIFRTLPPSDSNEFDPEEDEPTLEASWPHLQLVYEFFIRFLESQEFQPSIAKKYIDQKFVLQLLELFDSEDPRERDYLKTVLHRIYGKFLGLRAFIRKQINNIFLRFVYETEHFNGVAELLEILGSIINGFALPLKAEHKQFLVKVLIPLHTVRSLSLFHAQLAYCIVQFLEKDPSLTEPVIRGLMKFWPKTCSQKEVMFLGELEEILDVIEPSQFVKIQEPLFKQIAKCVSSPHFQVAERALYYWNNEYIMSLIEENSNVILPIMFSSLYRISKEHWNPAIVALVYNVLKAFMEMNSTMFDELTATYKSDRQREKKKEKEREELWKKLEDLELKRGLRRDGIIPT

B1: solute carrier family 25, member 46 (SLC25A46) (protein, UniProt Q9CQS4 1-418)
chain: MHPRRPEGFDGLGYRGGVRDDPAFGGPFHARSFGSGTELGHWVTTPPDIPGSRNLHWGEKSPSYGVPSAPPTLEGSAEEPFPGGGEGPRPGPSSEQLNRFAGFGIGLASLFTENVLAHPCIVLRRQCQVNYHARHYHLTPFSIINIMYSFNKTQGPRALWKGMGSTFIVQGVTLGAEGIISEFTPLPREVSHKLNPKQIGEHLLLKCLTYMVAMPFYSASLIETVQSEIIRDNTGILECVKEGIGRVIGLGVPHSKRLLPLFSLIFPTVLHGVLHYIISSIIQKIVLLILKRKTYNSHLAESTSPMQNMLDAYFPELIANFAASLCSDVILYPLETVLHRLHIQGTRTIIDNTDLGYEVLPINTQYEGMRDCINTIKQEEGVFGFYKGFGAVIIQYTLHATILQITKMIYSTLLQNSI
B2: RAS-related protein RAB3B (protein, UniProt Q9CZT8 1-219)
chain: MASVTDGKTGIKDASDQNFDYMFKLLIIGNSSVGKTSFLFRYADDTFTPAFVSTVGIDFKVKTVYRHEKRVKLQIWDTAGQERYRTITTAYYRGAMGFILMYDITNEESFNAVQDWATQIKTYSWDNAQVILVGNKCDMEEERVVPTEKGRLLAEQLGFDFFEASAKENISVRQAFERLVDAICDKMSDSMDTDPSVLGASKTTRLSDTPPLLQQNCSC
B3: synaptogyrin-1 (SYNGR1) (protein, UniProt O55100-1 1-234)
chain: MEGGAYGAGKAGGAFDPYTLVRQPHTILRVVSWVFSIVVFGSIVNEGYLNNPEEEEEFCIYNRNPNACSYGVTVGVLAFLTCLLYLALDVYFPQISSVKDRKKAVLSDIGVSAFWAFFWFVGFCFLANQWQVSKPKDNPLNEGTDAARAAIAFSFFSIFTWAGQAVLAFQRYQIGADSALFSQDYMDPSQDSSMPYAPYVEPSAGSDPAGMGGTYQHPANAFDAEPQGYQSQGY
B4: PPP2R2C (protein, UniProt Q8BG02 1-447)
chain: MGEDTDTRKINHSFLRDHSYVTEADVISTVEFNHTGELLATGDKGGRVVIFQREPESKNAPHSQGEYDVYSTFQSHEPEFDYLKSLEIEEKINKIKWLPQQNAAHSLLSTNDKTIKLWKITERDKRPEGYNLKDEEGKLKDLSTVTSLQVPVLKPMDLMVEVSPRRTFANGHTYHINSISVNSDCETYMSADDLRINLWHLAITDRSFNIVDIKPANMEDLTEVITASEFHPHHCNLFVYSSSKGSLRLCDMRAAALCDKHSKLFEEPEDPSNRSFFSEIISSVSDVKFSHSGRYMLTRDYLTVKVWDLNMEARPIETYQVHDYLRSKLCSLYESDCIFDKFECAWNGSDSVIMTGAYNNFFRMFDRNTKRDVTLEASRESSKPRAVLKPRRVCVGGKRRRDDISVDSLDFTKKILHTAWHPAENIIAIAATNNLYIFQDKVNSDMH

Results are given in words; binding and its absence hold for the method and conditions named. Binding seen in cells or lysates may run through a third protein. Some results given as binding are weak or reduced against the parent protein; the word gives no strength. Tags and fused reporters may be left off the sequences shown.

This test concerns the target T1, reticulon 3 (RTN3) (mouse (endogenous in hippocampus of 3xTg-AD mice)). Nature of the test: co-IP; hippocampal tissue of group-housed or socially isolated AD mice lysed in RIPA buffer; 1 mg protein with 2 ug RTN3 antibody at 4 C overnight, protein A + G agarose beads 4 h, washed with PBS; Western blot for the partners; normal rabbit IgG as negative control; also done on senktide-treated mice (Fig. S11A-J). For orientation: Immunoblotting shows a protein as a band on a membrane.
For “dynamin 1 like (DNM1L) (from UniProt Q8K1M6-6 1-712)”, the binding entry is on record as “binds”.
PPP2R5A (from UniProt Q6PD03 1-486): the binding result is on record as “binds”.
As for PPP2R5E (from UniProt Q61151 1-467), the binding result is given as “binds”.
For the molecule B1, the binding entry was “binds”.
Turning to B2, the binding entry was “binds”.
As for B3, the binding entry is recorded as “binds”.
Next, B4: “binds”.

Source of the values: paper PMC10984625.
